Changes are numbered by the printed parent chain. These are yes or no findings as the source states them, for the method shown. Binding seen in cells or lysates may run through a third protein. Some results given as binding are weak or reduced against the parent protein; the word gives no strength. Blank lines part the entries; values can stand above or below the binder they belong to.
What was measured:
[1] = molecular target: T1, Elp1-S1198A S1202A-6HA (S. cerevisiae) (UniProt Q06706); assay: co-IP; Elp2-myc immunoprecipitated from extracts of elp1Δ yeast strains carrying plasmid-borne ELP1-6HA alleles (antibody coupled to Dynabeads, B60 buffer); Western blot with anti-myc, anti-HA and anti-Hrr25
T1 sequence: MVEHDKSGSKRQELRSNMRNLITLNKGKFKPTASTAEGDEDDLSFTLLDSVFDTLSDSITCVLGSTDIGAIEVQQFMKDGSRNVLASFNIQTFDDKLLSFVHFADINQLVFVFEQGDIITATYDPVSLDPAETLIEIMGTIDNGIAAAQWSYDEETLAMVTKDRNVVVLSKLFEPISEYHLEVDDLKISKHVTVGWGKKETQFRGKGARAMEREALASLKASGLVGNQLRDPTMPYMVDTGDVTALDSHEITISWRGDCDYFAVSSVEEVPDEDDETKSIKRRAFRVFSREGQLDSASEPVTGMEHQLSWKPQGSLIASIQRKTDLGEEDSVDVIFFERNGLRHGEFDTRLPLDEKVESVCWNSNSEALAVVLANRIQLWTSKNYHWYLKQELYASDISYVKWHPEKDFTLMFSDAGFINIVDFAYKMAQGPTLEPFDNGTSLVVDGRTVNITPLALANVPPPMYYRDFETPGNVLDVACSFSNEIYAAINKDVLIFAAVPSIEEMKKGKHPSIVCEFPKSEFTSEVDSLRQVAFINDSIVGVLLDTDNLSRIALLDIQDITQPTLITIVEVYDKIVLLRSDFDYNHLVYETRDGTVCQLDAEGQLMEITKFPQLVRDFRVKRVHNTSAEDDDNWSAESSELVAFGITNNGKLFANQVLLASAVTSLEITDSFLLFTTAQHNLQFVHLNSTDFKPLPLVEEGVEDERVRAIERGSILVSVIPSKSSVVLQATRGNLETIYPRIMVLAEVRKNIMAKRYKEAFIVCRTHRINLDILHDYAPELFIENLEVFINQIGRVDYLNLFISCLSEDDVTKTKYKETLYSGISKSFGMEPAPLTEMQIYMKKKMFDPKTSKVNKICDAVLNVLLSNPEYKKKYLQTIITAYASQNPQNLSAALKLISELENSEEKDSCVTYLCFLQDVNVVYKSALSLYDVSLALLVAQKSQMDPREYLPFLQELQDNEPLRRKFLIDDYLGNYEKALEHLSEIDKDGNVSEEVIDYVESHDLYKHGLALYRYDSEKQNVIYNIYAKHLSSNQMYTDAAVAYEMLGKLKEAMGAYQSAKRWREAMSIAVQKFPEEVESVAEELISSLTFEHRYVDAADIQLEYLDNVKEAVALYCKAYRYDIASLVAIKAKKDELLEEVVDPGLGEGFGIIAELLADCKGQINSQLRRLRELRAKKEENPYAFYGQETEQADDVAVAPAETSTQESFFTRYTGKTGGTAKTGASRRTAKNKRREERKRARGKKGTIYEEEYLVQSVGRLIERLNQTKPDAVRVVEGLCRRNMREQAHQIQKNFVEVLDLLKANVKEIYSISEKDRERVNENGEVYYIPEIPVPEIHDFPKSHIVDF

[2] = molecular target: T2, Elp1-S1209A-6HA (S. cerevisiae) (UniProt Q06706); assay: as above
T2 sequence: T1 sequence with A1198S, A1202S, S1209A

binding [1]: binds
binding [2]: binds
B1: Hrr25 protein kinase (casein kinase I), endogenous (enzyme, UniProt P29295 1-494)
chain: MDLRVGRKFRIGRKIGSGSFGDIYHGTNLISGEEVAIKLESIRSRHPQLDYESRVYRYLSGGVGIPFIRWFGREGEYNAMVIDLLGPSLEDLFNYCHRRFSFKTVIMLALQMFCRIQYIHGRSFIHRDIKPDNFLMGVGRRGSTVHVIDFGLSKKYRDFNTHRHIPYRENKSLTGTARYASVNTHLGIEQSRRDDLESLGYVLIYFCKGSLPWQGLKATTKKQKYDRIMEKKLNVSVETLCSGLPLEFQEYMAYCKNLKFDEKPDYLFLARLFKDLSIKLEYHNDHLFDWTMLRYTKAMVEKQRDLLIEKGDLNANSNAASASNSTDNKSETFNKIKLLAMKKFPTHFHYYKNEDKHNPSPEEIKQQTILNNNAASSLPEELLNALDKGMENLRQQQPQQQVQSSQPQPQPQQLQQQPNGQRPNYYPEPLLQQQQRDSQEQQQQVPMATTRATQYPPQINSNNFNTNQASVPPQMRSNPQQPPQDKPAGQSIWL

binding [1]: binds
binding [2]: binds
B2: Kti12-HA6 (natural protein, S. cerevisiae, UniProt P34253 1-313, looked up)
chain: MPLVLFTGYPCSGKTTLAKHLVQLLQSKIDATPSLSKYSITYHSDESLGIKHSDYITSQDERKLRSEIISAVKRDLSKNKIVIVDSLNYIKGFRYQLHCEVKNLSTTFCVIQTLCPPETIFEWNKTSNPNPWEPELLNQLIQRYEEPNSSNRWDSPLFAILTPQDNITDYIDDICKVVFQTSKSAKNSGHNDPLSKGLQKPNSATVLKPASQSNFIQVLDIETSKIIKTIMNHIKSLTSIGGVSNGTRVIVSEGITDINDDGCFFVDLPIGNVVTLAQLQRLKRQFINFNKLRDIDQDRIGPLFADYLNKNLN
notes: Kti12, accessory protein of Elongator, S. cerevisiae; also called HA-tagged Kti12; source: S. cerevisiae KTI12-HA6 strains, in cell extract

From article PMC4287497, “Phosphorylation of Elp1 by Hrr25 Is Required for Elongator-Dependent tRNA Modification in Yeast” (PLoS Genetics, 2015)
